# PubChem BioAssay AID1259269, Sanger Institute – 2017
# Purpose: 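Retest knock-downs that hurt colorectal cancer cells more once an anchor drug is added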 (follow-up of hits)
# Cells: HCC2998 human colorectal cancer cells
# Reagent: single siRNA against human genes
# Challenge: anchor drug BYL719 1 µM, cetuximab 5 µg/ml or trametinib 10 nM; DMSO vehicle as comparison arm
# Measured: 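Replicate-averaged survival relative to non-targeting control siRNA with DMSO or drug (BYL719 1 µM, cetuximab 5 µg/ml, trametinib 10 nM); per-drug synergy score, higher for stronger synthetic lethality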
# Reading the numbers: synergy score with BYL719 and synergy score with cetuximab and synergy score with trametinib: higher = stronger synthetic lethal effect with the drug; viability with DMSO: higher = more cells survive the knock-down; viability with trametinib: higher = more cells survive knock-down plus drug
# Rule for the call: 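a gene counts as active when any of the three drug arms gives an averaged synergy above 0.10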
# Calls: active = synergy with at least one drug; inactive = no synergy with any drug
# In all, the deposit lists 160 reagents; below is a random part of them. 108 of them (68%) were called active. 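Viability cannot exceed 1; how synergy scores were computed is not described.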 Reagents against one gene are numbered here. No viability above 1 is reported: the scale is capped. Not given: the amount of reagent, the time to read-out.
synergy score with BYL719,synergy score with cetuximab,synergy score with trametinib,viability with DMSO (fraction of control),viability with trametinib (fraction of control),Outcome,Gene,reagent
-0.273,0.0528,-0.134,0.822,0.595,inactive,MAPK4,1
0.137,0.0653,0.381,0.94,0.147,active,MAPK4,2
-0.129,-0.23,0.0925,0.685,0.292,inactive,MAPK4,3
-0.039,-0.183,0.0383,0.421,0.198,inactive,MAPK4,4
-0.29,-0.0194,0.231,0.724,0.176,active,STK36,1
-0.0852,-0.0938,0.183,0.906,0.325,active,STK36,2
-0.0847,0.133,0.0576,0.622,0.292,active,STK36,3
-0.116,0.188,0.251,1,0.31,active,STK36,4
-0.162,-0.155,-0.021,0.235,0.153,inactive,PFKFB3,1
0.117,0.211,0.1,0.359,0.101,active,PFKFB3,2
-0.101,0.101,-0.0193,0.478,0.287,active,PFKFB3,3
-0.121,-0.00484,0.0258,0.995,0.533,inactive,PFKFB3,4

A few values from the list.
MAPK4 #3, synergy score with cetuximab = -0.23
For “viability with DMSO (fraction of control)”, PFKFB3 #4 has 0.995

Additional results follow:
synergy score with BYL719,synergy score with cetuximab,synergy score with trametinib,viability with DMSO (fraction of control),viability with trametinib (fraction of control),Outcome,Gene,reagent
0.0954,0,0.346,1,0.215,active,BMPR2,1
-0.0885,-0.129,0.216,0.633,0.139,active,BMPR2,2
0.0977,0.172,0.271,0.857,0.211,active,BMPR2,3
0.195,0,0.155,1,0.406,active,BMPR2,4
0.0241,0.119,0.0974,0.432,0.145,active,HUNK,1
0.1,-0.2,0.112,0.326,0.0708,active,HUNK,2
-0.0703,0.212,0.0371,0.441,0.21,active,HUNK,3
0.0947,0.344,0.278,0.792,0.166,active,HUNK,4
-0.137,0.00929,0.0571,0.323,0.124,inactive,IRAK3,1
-0.0378,0.19,0.229,0.828,0.236,active,IRAK3,2
-0.512,-0.112,-0.0489,0.44,0.296,inactive,IRAK3,3
-0.232,-0.198,-0.0396,0.405,0.267,inactive,IRAK3,4
-0.116,0,0.173,1,0.389,active,MPP3,1
-0.0963,0.204,0.31,0.958,0.228,active,MPP3,2
0.159,-0.0708,0.489,0.929,0.0329,active,MPP3,3
-0.196,0.0862,0.106,0.699,0.286,active,MPP3,4
0.277,0.34,0.32,0.964,0.222,active,SYNCRIP,1
-0.116,0.0349,0.225,1,0.336,active,SYNCRIP,2
0.0359,0.153,0.259,0.724,0.148,active,SYNCRIP,3
-0.116,0,0.306,1,0.255,active,SYNCRIP,4
0.163,-0.0994,0.179,0.901,0.327,active,GRK5,1
-0.289,-0.473,-0.0652,0.527,0.361,inactive,GRK5,2
-0.0284,-0.185,0.284,0.815,0.173,active,GRK5,3
-0.325,-0.0364,0.123,0.445,0.127,active,GRK5,4
